{"source": "PubChem BioAssay AID743121, NCATS – 2013", "screen": "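Knock-downs that sensitise breast cancer cells to camptothecin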 (primary screen)", "system": "MDA-MB-231 cells, a human breast cancer line", "reagents": "single siRNA against human genes, 20 nM siRNA (0.8 pmol per well)", "timing": "120 h (drug added 48 h after transfection, read 72 h later)", "treatment": "camptothecin 20 nM (about EC30) for 72 h; vehicle 0.1% DMSO in parallel plates", "measurement": "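Cell viability by ATP luminescence (CellTiter-Glo) as % of non-targeting siRNA wells, and the log2 ratio of viability without drug over viability with camptothecin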", "reading the numbers": "log2 vehicle/camptothecin viability: higher = stronger sensitisation to camptothecin", "hit rule": "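Active genes have an RSA gene-level p-value below 0.001, computed from the ratios of their separate siRNAs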", "note": "Shown is one part, drawn at random, of about 26,000 reagents. Over the whole deposit, 167 (0.63%) are marked active. 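Calls are per gene from RSA p-values that are not deposited; an individual active-marked siRNA can sensitise only weakly.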 Reagents against one gene are numbered here. Further read-outs or replicates are left out here."}
{"gene": "LRRK2 (leucine rich repeat kinase 2)", "reagent": 1, "log2 vehicle/camptothecin viability": -0.0186, "call": "inactive"}
{"gene": "LRRK2 (leucine rich repeat kinase 2)", "reagent": 2, "log2 vehicle/camptothecin viability": -0.148, "call": "inactive"}
{"gene": "LRRK2 (leucine rich repeat kinase 2)", "reagent": 3, "log2 vehicle/camptothecin viability": 0.28, "call": "inactive"}
{"gene": "LRRK2 (leucine rich repeat kinase 2)", "reagent": 4, "log2 vehicle/camptothecin viability": -0.249, "call": "inactive"}
{"gene": "OMA1 (OMA1 zinc metallopeptidase)", "reagent": 1, "log2 vehicle/camptothecin viability": -0.0304, "call": "inactive"}
{"gene": "OMA1 (OMA1 zinc metallopeptidase)", "reagent": 2, "log2 vehicle/camptothecin viability": -0.246, "call": "inactive"}
{"gene": "OMA1 (OMA1 zinc metallopeptidase)", "reagent": 3, "log2 vehicle/camptothecin viability": -0.0901, "call": "inactive"}
{"gene": "OMA1 (OMA1 zinc metallopeptidase)", "reagent": 4, "log2 vehicle/camptothecin viability": -0.232, "call": "inactive"}
{"gene": "UBTD1 (ubiquitin domain containing 1)", "reagent": 1, "log2 vehicle/camptothecin viability": -0.163, "call": "inactive"}
{"gene": "UBTD1 (ubiquitin domain containing 1)", "reagent": 2, "log2 vehicle/camptothecin viability": -0.0979, "call": "inactive"}
{"gene": "UBTD1 (ubiquitin domain containing 1)", "reagent": 3, "log2 vehicle/camptothecin viability": -0.0279, "call": "inactive"}
{"gene": "UBTD1 (ubiquitin domain containing 1)", "reagent": 4, "log2 vehicle/camptothecin viability": -0.548, "call": "inactive"}
{"gene": "ADCYAP1R1 (ADCYAP receptor type I)", "reagent": 1, "log2 vehicle/camptothecin viability": -0.718, "call": "inactive"}
{"gene": "ADCYAP1R1 (ADCYAP receptor type I)", "reagent": 2, "log2 vehicle/camptothecin viability": 0.474, "call": "inactive"}
{"gene": "ADCYAP1R1 (ADCYAP receptor type I)", "reagent": 3, "log2 vehicle/camptothecin viability": -0.203, "call": "inactive"}
{"gene": "ADCYAP1R1 (ADCYAP receptor type I)", "reagent": 4, "log2 vehicle/camptothecin viability": 0.165, "call": "inactive"}
{"gene": "FBN1 (fibrillin 1)", "reagent": 1, "log2 vehicle/camptothecin viability": 0.111, "call": "inactive"}
{"gene": "FBN1 (fibrillin 1)", "reagent": 2, "log2 vehicle/camptothecin viability": -0.0207, "call": "inactive"}
{"gene": "FBN1 (fibrillin 1)", "reagent": 3, "log2 vehicle/camptothecin viability": -0.359, "call": "inactive"}
{"gene": "FBN1 (fibrillin 1)", "reagent": 4, "log2 vehicle/camptothecin viability": -0.356, "call": "inactive"}
{"gene": "TAS2R13 (taste 2 receptor member 13)", "reagent": 1, "log2 vehicle/camptothecin viability": -0.16, "call": "inactive"}
{"gene": "TAS2R13 (taste 2 receptor member 13)", "reagent": 2, "log2 vehicle/camptothecin viability": -0.106, "call": "inactive"}
{"gene": "TAS2R13 (taste 2 receptor member 13)", "reagent": 3, "log2 vehicle/camptothecin viability": -0.37, "call": "inactive"}
{"gene": "TAS2R13 (taste 2 receptor member 13)", "reagent": 4, "log2 vehicle/camptothecin viability": -0.686, "call": "inactive"}
{"gene": "TRIM48 (tripartite motif containing 48)", "reagent": 1, "log2 vehicle/camptothecin viability": 0.0684, "call": "inactive"}
{"gene": "TRIM48 (tripartite motif containing 48)", "reagent": 2, "log2 vehicle/camptothecin viability": -0.193, "call": "inactive"}
{"gene": "TRIM48 (tripartite motif containing 48)", "reagent": 3, "log2 vehicle/camptothecin viability": -0.502, "call": "inactive"}
{"gene": "ZSCAN22 (zinc finger and SCAN domain containing 22)", "reagent": 1, "log2 vehicle/camptothecin viability": -0.441, "call": "inactive"}
{"gene": "ZSCAN22 (zinc finger and SCAN domain containing 22)", "reagent": 2, "log2 vehicle/camptothecin viability": -0.0928, "call": "inactive"}
{"gene": "ZSCAN22 (zinc finger and SCAN domain containing 22)", "reagent": 3, "log2 vehicle/camptothecin viability": 0.147, "call": "inactive"}
{"gene": "ZSCAN22 (zinc finger and SCAN domain containing 22)", "reagent": 4, "log2 vehicle/camptothecin viability": -0.0422, "call": "inactive"}
{"gene": "ABCF3 (ATP binding cassette subfamily F member 3)", "reagent": 1, "log2 vehicle/camptothecin viability": 0.0265, "call": "inactive"}
{"gene": "ABCF3 (ATP binding cassette subfamily F member 3)", "reagent": 2, "log2 vehicle/camptothecin viability": -0.207, "call": "inactive"}
{"gene": "ABCF3 (ATP binding cassette subfamily F member 3)", "reagent": 3, "log2 vehicle/camptothecin viability": -0.179, "call": "inactive"}
{"gene": "ABCF3 (ATP binding cassette subfamily F member 3)", "reagent": 4, "log2 vehicle/camptothecin viability": -0.246, "call": "inactive"}

A stretch of the results above, as a working copy:
{"gene": "OMA1 (OMA1 zinc metallopeptidase)", "reagent": 3, "log2 vehicle/camptothecin viability": -0.0901, "call": "inactive"}
{"gene": "OMA1 (OMA1 zinc metallopeptidase)", "reagent": 4, "log2 vehicle/camptothecin viability": -0.232, "call": "inactive"}
